Measured values reported in PubChem BioAssay AID504834 (National Center for Advancing Translational Sciences (NCATS), 2011).
Among all 320,000 compounds or so, about 22,000 (6.9%) were called active. The inconclusive results got no clear call from the source; some entries with a clear call stand among them for comparison. Calls come from the whole dose curve; as a rule, active = well fitted inhibition curve with a large enough effect; inconclusive = small, poorly fitted or top-dose-only effect, or another doubt; inactive = no such curve, though single readings can be large or run the other way. Potencies of inconclusive entries are doubtful fits and often do not repeat.

assay: Primary qHTS for delayed death inhibitors of the malarial parasite plastid, 96 hour incubation; conditions: P. falciparum luciferase reporter growth; series mostly up to 28.7 µM; activity change, negative = inhibition: at the top concentration
Procedure, shortened: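 Cell-based qHTS: luciferase-tagged P. falciparum in erythrocytes (2% hematocrit, 0.05% parasitemia final) incubated with compounds for 96 hours, 37 C, 5% CO2; luciferase detection reagent then added and luminescence measured.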
% is set by controls: 0 for no effect and ±100 for the full control effect; potency is the fitted concentration of half-maximal effect.

Structure (SMILES) | activity change, negative = inhibition | Potency
Cc1ccc2nc(-c3cccc(S(=O)(=O)N4CC(C)OC(C)C4)c3)cn2c1 (stereo unspecified) | inactive: -12.1% | –
COc1ccc(OC)c(NC(=O)c2ccc3c(c2)C(=O)N(c2ccc(OC(C)=O)cc2)C3=O)c1 | – | inconclusive: 8.28 µM [inhibitor, partial curve]
COc1ccc(C(=O)O/N=C(\N)Cc2ccc([N+](=O)[O-])cc2)c(OC)c1 | – | inconclusive: 18.5 µM [inhibitor, single point]
CC(C)(C)OC(=O)[C@H](Cc1ccccc1)NC(=O)c1[nH]cnc1C(=O)N[C@@H](Cc1ccccc1)C(=O)OCc1ccccc1 | – | inconclusive: 18.5 µM [inhibitor, single point]
CCCCNC(=O)c1ccc(NS(=O)(=O)c2ccc3[nH]c(=O)[nH]c3c2)cc1 | – | inconclusive: 18.5 µM [inhibitor, single point]
COc1cccc(CNC(=O)CCC2CCCN(C(=O)c3cscn3)C2)c1 (stereo unspecified) | – | inconclusive: 9.28 µM [inhibitor, single point]
COc1ccccc1CNC(=O)CN1CCN(S(=O)(=O)c2cccs2)CC1 | – | inconclusive: 18.5 µM [inhibitor, single point]
COc1cc(NC(=O)C2CC(=O)NC3=C2C(=O)CCC3)c(OC)cc1Cl (stereo unspecified) | – | inconclusive: 16.5 µM [inhibitor, single point]
CN1C(=O)NC(NS(=O)(=O)c2ccc(N)cc2)(C(F)(F)F)C1=O (stereo unspecified) | – | inconclusive: 0.0928 µM [inhibitor, full curve, poor fit]
Cc1ccc(-c2c(C(=O)N/N=C/c3ccncc3)nnn2-c2nonc2N)cc1 | – | inconclusive: 5.22 µM [inhibitor, partial curve]
Cc1cccc(N2CCN(C3=NC(=O)/C(=C\c4cn[nH]c4-c4ccccc4)S3)CC2)c1 | – | active: 11.7 µM
Cc1cccc(NC(=O)Cn2cc(C(=O)C3CC3)c3ccccc32)c1C | – | inconclusive: 18.5 µM [inhibitor, single point]
COCCCNC(=O)c1cn(CCOC)c(=O)c2c1c1ccccc1n2C | – | inconclusive: 9.28 µM [inhibitor, partial curve, poor fit]
O=C(C[n+]1ccc(C(=O)NCc2ccccc2)cc1)c1ccc(OC(F)F)cc1 | inactive: -23.6% | –
O=C(NCc1ccncc1)C(=O)NCC(c1ccco1)N1CCN(c2ccccc2F)CC1 (stereo unspecified) | – | inconclusive: 3.7 µM [inhibitor, single point]
Cc1[nH]c2c(ccc3cccnc32)c1C | inactive: 18.7% | –
Cc1cc(Nc2cccc(Cl)c2Cl)n2ncnc2n1 | – | inconclusive: 18.5 µM [inhibitor, single point]
COc1ccc(CC(=O)Nc2ccc(-c3noc(-c4ccccc4OC)n3)cc2)cc1 | – | inconclusive: 9.28 µM [inhibitor, single point]
Cc1ccc(C(=O)Nc2ccn(C)n2)cc1 | inactive: 33.8% | –
CCCCCCSc1cc(-c2nc3cnccn3c2NCc2ccccc2)ccc1OC | – | active: 5.86 µM
CC(C)(C)c1ccc(CNc2cc(N3CCOCC3)ccc2[N+](=O)[O-])cc1 | inactive: 0% | –
CC(=O)c1ccc(-c2nnc(CCC(=O)N3CCCC(C(=O)CC(C)C)C3)o2)s1 (stereo unspecified) | inactive: 18.3% | –

3 structures already listed, sorted by count of non-hydrogen atoms, smallest number first:
Structure (SMILES) | activity change, negative = inhibition | Potency
COc1ccccc1CNC(=O)CN1CCN(S(=O)(=O)c2cccs2)CC1 | – | inconclusive: 18.5 µM [inhibitor, single point]
Cc1ccc(-c2c(C(=O)N/N=C/c3ccncc3)nnn2-c2nonc2N)cc1 | – | inconclusive: 5.22 µM [inhibitor, partial curve]
Cc1cccc(N2CCN(C3=NC(=O)/C(=C\c4cn[nH]c4-c4ccccc4)S3)CC2)c1 | – | active: 11.7 µM

(next part)

Structure (SMILES) | activity change, negative = inhibition | Potency
COCC(C)n1c(C)cc(C(=O)CSc2nnnn2-c2ccc(O)cc2)c1C (stereo unspecified) | inactive: -29.2% | –
O=C(O)CN1C(=O)/C(=C\c2cn(CC(=O)N3CCOCC3)c3ccccc23)SC1=S | – | inconclusive: 14.7 µM [inhibitor, single point]
COc1ccc(C2C(C#N)=C(N)N(Nc3ccccc3)C3=C2C(=O)CC(C)(C)C3)cc1C (stereo unspecified) | – | inconclusive: 14.7 µM [inhibitor, partial curve, poor fit]
COc1cccc(NC(=O)CNC(C)CCC(C)C)c1 (stereo unspecified) | – | inconclusive: 18.5 µM [inhibitor, single point]
O=c1c2c(nc3c(-c4ccccc4)c[nH]n13)CCC2 | inactive: 87.8% | –
CCC1CCCCN1C(=O)CSc1nnc(-c2ccc3c(c2)OCCO3)o1 (stereo unspecified) | – | inconclusive: 18.5 µM [inhibitor, single point]
COc1ccccc1NS(=O)(=O)c1cccc(C(=O)N/N=C/c2ccc([N+](=O)[O-])o2)c1 | – | active: 1.65 µM
COc1cc2cccc(OC)c(=O)c2c(OC)c1OC | – | inconclusive: 13.1 µM [inhibitor, partial curve, poor fit]
Cc1ccccc1NC(=O)Nc1nc2ccc(S(C)(=O)=O)cc2s1 | – | inconclusive: 18.5 µM [inhibitor, single point]
COC(=O)c1sccc1NC(=O)COc1ccccc1Cl | – | inconclusive: 18.5 µM [inhibitor, single point]
O=C(CCCOc1ccc(Cl)cc1Cl)NCC1CCCO1 (stereo unspecified) | – | inconclusive: 9.28 µM [inhibitor, partial curve, poor fit]
COc1ccccc1N1CCN(C(=O)Nc2ccc([N+](=O)[O-])cc2)CC1 | – | inconclusive: 18.5 µM [inhibitor, partial curve, poor fit]
O=C(O)Cc1nn(Cc2ccc(Cl)cc2)c(=O)c2ccccc12 | – | inconclusive: 10.4 µM [inhibitor, partial curve, poor fit]
CCOC(=O)c1cc(C)[nH]c(=S)c1C#N | – | inconclusive: 0.0093 µM [inhibitor, full curve, poor fit]
O=C(CSc1ncn[nH]1)c1cccc([N+](=O)[O-])c1 | – | inconclusive: 10.4 µM [inhibitor, partial curve, poor fit]
O=C(N/N=C/c1cc([N+](=O)[O-])cc([N+](=O)[O-])c1O)C(O)(c1ccccc1)c1ccccc1 | – | inconclusive: 18.5 µM [inhibitor, single point]
Cc1ccc(NC(=O)NC2CCCc3ccccc32)cc1 (stereo unspecified) | – | inconclusive: 18.5 µM [inhibitor, single point]
Cc1ccc(C)c(NS(=O)(=O)c2cc(C(=O)NCc3ccccn3)ccc2C)c1 | – | inconclusive: 11.7 µM [inhibitor, single point]
Cc1cc(C)n(-c2cc(Cl)cc(Cl)c2)c(=O)c1C#N | – | inconclusive: 8.28 µM [inhibitor, partial curve]
O=C(NCc1ccco1)C1CCCN(S(=O)(=O)c2ccc(-n3cnnn3)cc2)C1 (stereo unspecified) | – | inconclusive: 11.7 µM [inhibitor, single point]
O=C(OCc1nnc(-c2ccccc2)o1)c1cc(=O)[nH]c2ccccc12 | inactive: 10.2% | –
CCCOc1ccc(C(F)(F)F)cc1NC(=O)CCc1c(C)noc1C | – | inconclusive: 0.465 µM [inhibitor, full curve, poor fit]

Two entries picked at random from the list so far:
Structure (SMILES) | activity change, negative = inhibition | Potency
COc1cc2cccc(OC)c(=O)c2c(OC)c1OC | – | inconclusive: 13.1 µM [inhibitor, partial curve, poor fit]
O=C(CCCOc1ccc(Cl)cc1Cl)NCC1CCCO1 (stereo unspecified) | – | inconclusive: 9.28 µM [inhibitor, partial curve, poor fit]

Next compounds

Structure (SMILES) | activity change, negative = inhibition | Potency
CCOC(=O)C1(CCCc2ccccc2)CCN(C(=O)c2cnn(CC)c2)CC1 | – | inconclusive: 10.4 µM [inhibitor, single point]
Cc1cc(C)nc(-n2nc(C)cc2NC(=O)c2ccc(S(=O)(=O)N3CCOCC3)cc2)n1 | – | inconclusive: 2.62 µM [inhibitor, full curve, poor fit]
CCOc1ccc(S(=O)(=O)n2cc(-c3ccc(F)cc3)c(N)n2)cc1 | – | active: 9.28 µM
COc1ccc(N2CCN(c3ncnc4scc(-c5ccc(F)cc5)c34)CC2)cc1 | – | active: 11.7 µM
CC1(C)CC(=O)C(N=Nc2cc(Cl)c(Cl)c(Cl)c2)=C(O)C1 | inactive: 23.6% | –
Cc1c(NC(=O)CSc2nnc3c4ccccc4n(CCc4ccccc4)c3n2)c(=O)n(-c2ccccc2)n1C | inactive: 50.7% | –
CC1CCN(C(=S)SCc2nc(N)nc(Nc3ccccc3)n2)CC1 | inactive: -26.1% | –
COc1cccc(C(c2c(NC(=O)c3ccco3)sc(C)c2C)N2CCOCC2)c1 (stereo unspecified) | – | active: 3.29 µM
Cn1c(=O)n(CCc2ccccc2)c(=O)c2c1nc1n2CCN1Cc1ccco1 | – | active: 5.22 µM
CSc1nccc(NC(=O)c2ccc(C(C)(C)C)cc2)n1 | inactive: 13.2% | –
CCOC(=O)c1c(-c2ccc(OC)cc2)csc1NC(=O)CCN1C(=O)c2ccccc2C1=O | – | inconclusive: 4.65 µM [inhibitor, partial curve, poor fit]
CC1CCc2c(sc(NC(=O)C3c4ccccc4Oc4ccccc43)c2C(N)=O)C1 (stereo unspecified) | – | active: 6.57 µM
COc1ccc(C2C(C(=O)Nc3cc(OC)c(OC)c(OC)c3)c3ccccc3C(=O)N2C)cc1OC (stereo unspecified) | inactive: 51.3% | –
COc1cccc(N2CCN(C(=O)CN(C)S(=O)(=O)c3ccc4c(c3)CCC(=O)N4)CC2)c1 | – | inconclusive: 11.7 µM [inhibitor, single point]
O=C(CN1CCN(c2ccc(F)cc2)CC1)N1N=CCC1c1ccccc1 (stereo unspecified) | – | inconclusive: 4.15 µM [inhibitor, single point]
Cc1ccc(S(=O)(=O)Oc2ccccc2C=C2C(=O)N(C)C(=O)N(C)C2=O)cc1 | – | active: 11.7 µM
O=C(O)C1C2C=CC(C2)C1C(=O)NCc1ccccn1 (stereo unspecified) | – | inconclusive: 11.7 µM [inhibitor, partial curve, poor fit]
O=C(NC(Cc1c[nH]c2ccccc12)C(=O)N/N=C/c1ccc(Cl)cc1)c1cccs1 (stereo unspecified) | – | inconclusive: 13.1 µM [inhibitor, single point]
COC(=O)c1ccccc1NC(=O)CN(C)Cc1ccccc1 | inactive: -7.74% | –
COc1ccc(OC)c(N2CC(O)(c3cccs3)[N+]3=C2SCCC3)c1 (stereo unspecified) | – | inconclusive: 18.5 µM [inhibitor, single point]
Fc1ccc2c(c1)C(c1ccncc1)=NNC(c1ccccc1)=N2 | – | inconclusive: 13.1 µM [inhibitor, single point]
Cc1ccc(S(=O)(=O)N2CCC(C(=O)N3CCN(c4ccccn4)CC3)CC2)cc1 | – | inconclusive: 9.28 µM [inhibitor, partial curve, poor fit]
